In this test the target is T1, Brn1-V5 (S. cerevisiae) (UniProt P38170).
T1 sequence: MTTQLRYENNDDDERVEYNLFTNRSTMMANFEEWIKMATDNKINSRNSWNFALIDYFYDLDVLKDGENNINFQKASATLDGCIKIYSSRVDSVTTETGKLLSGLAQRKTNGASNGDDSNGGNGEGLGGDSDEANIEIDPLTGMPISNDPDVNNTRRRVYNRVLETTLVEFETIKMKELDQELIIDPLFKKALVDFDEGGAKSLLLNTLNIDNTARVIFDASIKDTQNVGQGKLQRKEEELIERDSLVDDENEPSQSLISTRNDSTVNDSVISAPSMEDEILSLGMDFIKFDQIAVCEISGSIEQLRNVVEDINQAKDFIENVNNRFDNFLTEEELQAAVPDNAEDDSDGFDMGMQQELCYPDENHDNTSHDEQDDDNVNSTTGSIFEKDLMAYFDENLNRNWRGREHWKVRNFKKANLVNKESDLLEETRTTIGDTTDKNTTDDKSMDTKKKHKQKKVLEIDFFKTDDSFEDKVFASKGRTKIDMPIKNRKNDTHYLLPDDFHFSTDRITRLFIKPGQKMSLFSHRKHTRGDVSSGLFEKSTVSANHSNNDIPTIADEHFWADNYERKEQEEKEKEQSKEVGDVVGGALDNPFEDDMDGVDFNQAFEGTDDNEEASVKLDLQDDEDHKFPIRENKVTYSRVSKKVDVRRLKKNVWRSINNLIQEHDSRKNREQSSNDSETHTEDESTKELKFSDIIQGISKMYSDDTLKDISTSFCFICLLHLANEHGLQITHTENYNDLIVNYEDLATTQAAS
Briefly: co-IP.

We go through 1 molecule from article doi:10.1101/2025.11.17.688780.

These are yes or no findings as the source states them, for the method shown. In cells and extracts the contact can be indirect. Some binding calls cover weakened binding; strength is not graded here. Where a sequence is shown, tags or fusion partners need not be part of it.

B1: Smc2 K38I, HA tagged (protein, UniProt P38989 1-1170)
chain: MKVEELIIDGFKSYATRTVITDWDPQFNAITGLNGSGISNILDAICFVLGIASMSTVRASSLQDLIYKRGQAGVTKASVTIVFDNTDKSNSPIGFTNSPQISVTRQVVLGGTSKYLINGHRAPQQSVLQLFQSVQLNINNPNFLIMQGKITKVLNMKPSEILSLIEEAAGTKMFEDRREKAERTMSKKETKLQENRTLLTEEIEPKLEKLRNEKRMFLEFQSTQTDLEKTERIVVSYEYYNIKHKHTSIRETLENGETRMKMLNEFVKKTSEEIDSLNEDVEEIKLQKEKELHKEGTISKLENKENGLLNEISRLKTSLSIKVENLNDTTEKSKALESEIASSSAKLIEKKSAYANTEKDYKMVQEQLSKQRDLYKRKEELVSTLTTGISSTGAADGGYNAQLAKAKTELNEVSLAIKKSSMKMELLKKELLTIEPKLKEATKDNELNVKHVKQCQETCDKLRARLVEYGFDPSRIKDLKQREDKLKSHYYQTCKNSEYLKRRVTNLEFNYTKPYPNFEASFVHGVVGQLFQIDNDNIRYATALQTCAGGRLFNVVVQDSQTATQLLERGRLRKRVTIIPLDKIYTRPISSQVLDLAKKIAPGKVELAINLIRFDESITKAMEFIFGNSLICEDPETAKKITFHPKIRARSITLQGDVYDPEGTLSGGSRNTSESLLVDIQKYNQIQKQIETIQADLNHVTEELQTQYATSQKTKTIQSDLNLSLHKLDLAKRNLDANPSSQIIARNEEILRDIGECENEIKTKQMSLKKCQEEVSTIEKDMKEYDSDKGSKLNELKKELKLLAKELEEQESESERKYDLFQNLELETEQLSSELDSNKTLLHNHLKSIESLKLENSDLEGKIRGVEDDLVTVQTELNEEKKRLMDIDDELNELETLIKKKQDEKKSSELELQKLVHDLNKYKSNTNNMEKIIEDLRQKHEFLEDFDLVRNIVKQNEGIDLDTYRERSKQLNEKFQELRKKVNPNIMNMIENVEKKEAALKTMIKTIEKDKMKIQETISKLNEYKRETLVKTWEKVTLDFGNIFADLLPNSFAKLVPCEGKDVTQGLEVKVKLGNIWKESLIELSGGQRSLIALSLIMALLQFRPAPMYILDEVDAALDLSHTQNIGHLIKTRFKGSQFIVVSLKEGMFANANRVFRTRFQDGTSVVSIM
As to B1, the binding result was “binds”.
